At least one compound was matched to its structure with a doubt left.
Legend:
Assay type in all cases: cell-based, human
Conditions in all cases: 6 h exposure at sub-cytotoxic exposure conc. of Tables 1/2, vs vehicle control, N=3, below -1.0 = underexpression
[1] = system: ABCA1; experiment: Fluidigm multiplex real-time quantitative PCR of marker gene ABCA1 in exposed Jurkat cells
[2] = system: CRIM1; experiment: Fluidigm multiplex real-time quantitative PCR of marker gene CRIM1 in exposed Jurkat cells
[3] = system: CHAC1; experiment: Fluidigm multiplex real-time quantitative PCR of marker gene CHAC1 in exposed Jurkat cells
[4] = system: HMGCS1; experiment: Fluidigm multiplex real-time quantitative PCR of marker gene HMGCS1 in exposed Jurkat cells

CCCCCCCCc1ccc(CCC(N)(CO)CO)cc1 [FTY720, fingolimod]
Expression levels of marker genes upon exposure: ABCA1 (Fold Change) [1]: −2.8 ± 0.3
Expression levels of marker genes upon exposure: CRIM1 (Fold Change) [2]: −1.4 ± 0.3
Expression levels of marker genes upon exposure: CHAC1 (Fold Change) [3]: −1.6 ± 0.3
Expression levels of marker genes upon exposure: HMGCS1 (Fold Change) [4]: 2.7 ± 0.5

Reference: patent US9528155B2, “In vitro method for determining immunotoxicity of a compound” (UNIVERSITEIT MAASTRICHT, priority 2012, dated 2016)
